Assay results as given in the supplement of paper PMC3334620.
In all, about 33,000 sequences were measured (“E-score (-0.5 to 0.5)”: median about -0.0059, highest 2% from about 0.26 on). Some of the results follow.

Molecular target: T1, Cin5 (UniProt P40917)
T1 sequence: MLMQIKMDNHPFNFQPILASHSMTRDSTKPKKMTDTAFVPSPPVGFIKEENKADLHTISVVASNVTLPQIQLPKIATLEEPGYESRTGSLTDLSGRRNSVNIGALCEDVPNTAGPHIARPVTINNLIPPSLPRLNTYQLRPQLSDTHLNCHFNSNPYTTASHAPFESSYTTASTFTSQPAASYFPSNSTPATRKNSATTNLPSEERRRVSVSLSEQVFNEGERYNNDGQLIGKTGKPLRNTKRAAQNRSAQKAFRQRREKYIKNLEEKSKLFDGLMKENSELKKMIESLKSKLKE
Assay: PBM E-score (8-mer binding enrichment) (E-score (-0.5 to 0.5)); higher = stronger / more preferred TF binding
Conditions: protein concentration: 100 nM; construct: GST-full length
Outline: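 Universal all-10-mer Agilent arrays, double-stranded by primer extension on fresh or once-stripped slides, were probed with about 100-200 nM GST-tagged yeast transcription factors made by PURExpress. Fluorescent anti-GST detected bound protein, and masliner normalised the scans. E-scores from the Universal PBM Analysis Suite were given to each ungapped eight-base word pooled with its reverse complement.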

Sequence	PBM E-score
AGCCCAAA	0.215
GGCGCAAA	0.142
CGGGCGGC	-0.1
CAATCTCC	0.0225
AACCCGAC	0.0291
AAGTGACT	-0.137
CCTGGTGA	-0.0922
ACGAATTA	0.0396
AGACGGAA	-0.00624
TCCCTAAA	0.0224
GAGTATAA	0.181
AAAGTGAA	0.258
CTACTCAC	0.0863
ATTCGGGC	-0.108
ACTCCACA	0.126
AACGGTTG	0.119
CTAGATTC	-0.0567
ATCGAACA	0.0675
CTAACTCA	-0.123
ACATTTTA	0.251
GCGTTCGA	0.0843
CGGATGGC	-0.00132
GCGCGGAC	-0.0321
GTAATTTA	0.27
ACCTGAAT	0.163

Sequence	PBM E-score
CCCTGGTC	-0.309
CCCAATGC	-0.162
ACCAAAGG	-0.114
CGTTTTAA	0.00349
AATTCCCA	0.0496
GTTAGAGA	-0.143
CTCTACTC	-0.0607
AAACTAGA	-0.116
AGAACTTA	0.0465
ACCTAGGG	-0.151
CTTTCGAA	-0.177
ATAGGTAC	0.0417
AGACCATG	-0.159
AGTCATAG	0.066
TGAACACA	0.0378
GATGGCTA	0.0218
TAAGAGAA	-0.0351
CGAACAAC	0.103
ATAATACA	0.35
CGTCAGCC	0.121
GATGAACC	-0.0498
ATAGTCCG	-0.063
GATGGGCC	-0.229
AACTGGGG	0.126
CAGCCAAG	-0.00072

Sequence	PBM E-score
ATGTAACG	0.107
AAAGACAC	-0.0134
ATACTACC	-0.0132
CCCTTTCG	-0.219
AACTTCAC	0.0461
AGGCTAGC	-0.163
AGTTCTAG	-0.0375
AAAGTCAC	-0.0129
CCACATAG	-0.0996
TCACTACA	0.185
CCCCCTAA	-0.368
AAAAAGCA	0.0522
GAGTTCAC	-0.015
TACCAATA	0.176
AAAGGATG	0.0722
ACCGTGCT	-0.203
GGACCGCC	-0.269
TCGGATCA	0.0229
CTCCTGAC	-0.00526
CGCTCGAC	-0.205
CAGGTATG	0.0898
AGTATTGG	-0.0176
CTTAGCGC	0.236
CAGTAAGG	-0.0464
AAACGAAT	0.0912

Sequence	PBM E-score
AGAACGAC	0.00763
AGCGTCTG	-0.244
ACCCTTAG	-0.101
ATCGTTCC	-0.121
TATTCAGA	0.126
AAACGTAA	0.234
ATATCACA	0.109
AGATGGTA	0.137
CAAGGGAC	-0.266
CACGGGTA	-0.0916
CTGCTAAA	-0.0894
GCGGGACA	0.0261
AGTTACAT	0.139
CGTGGCGC	-0.163
TAGATTCA	-0.16
CCCGGACA	-0.0103
TAACGTAA	0.415
ATCCAGCC	-0.0528
CTTATGTA	0.361
ACACGCGA	0.0888
CGGACAGA	0.0292
CAACTAGC	0.216
GTGCGTCA	-0.0416
CTTTTAAC	0.0121
GTGCCGTA	0.0613

Sequence	PBM E-score
GGTACGCA	0.00265
ACGCCTAG	-0.186
AAACGGTT	-0.121
CGGGTCAC	-0.106
CGTATCAG	0.0873
AGAATCGA	0.108
CACGAGAC	-0.11
CCGAACTA	0.128
ATTCAGAG	0.0844
GTCGGTCA	-0.0877
CCCGTTCG	-0.0149
ACCTCCAT	-0.116
AGACTGAA	-0.0521
AACTTGGT	0.131
AAAGTCCG	-0.203
AAAGAGTT	-0.0825
AAACAACC	0.117
GTTAGAAA	0.0402
GTGAGAAA	0.0748
CCGCCAAC	-0.0891
CCACGGGG	-0.282
AGAGAGGA	0.00084
CTTAAGCA	-0.00662
ATTTCTGC	0.247
GCCGTACA	0.0522

Sequence	PBM E-score
CCCGCATA	0.187
CTCTCAGA	-0.231
ACTCGTGG	-0.041
CAGATAAC	0.168
AGCCAATG	-0.073
ACCGTTAG	-0.0991
CCTATTAA	0.111
AATATGAC	0.163
ACCGGTAA	-0.0426
GTGTCGTA	0.0698
GAGGAGGA	-0.291
CCCTGCCG	-0.205
AATTATTG	0.212
GCACCTGA	-0.0738
GCAAGGAC	-0.0776
AAGACAAC	0.274
GCGGAAAA	0.213
ACCATGAC	0.12
AAGTCTAG	-0.264
ACACAGTA	-0.0345
ATTTGACC	0.0627
ACCCTGAT	-0.0343
AACGATGG	-0.021
ACAGAACT	0.0514
AATCTAAA	0.0428

Sequence	PBM E-score
CTGATATC	0.0795
AGATGAGA	-0.071
ATCACCAC	0.204
ATAAGGGC	0.112
ACTTAGCG	0.181
AGGCAAAC	0.0172
CAGTAGTC	-0.238
GTCGAACA	0.0829
ACTTTGAA	-0.0699
CACCGCTC	-0.048
ATGATATG	0.289
GTGCACGA	-0.0614
CAGAGAGG	-0.0926
GGAGTGAC	0.0786
CCTTCTCG	-0.251
ATTGACTA	0.0626
CCAGGGAG	-0.295
CTCTTGGA	-0.0707
GAAATCTC	-0.0158
GGCCGTCA	-0.15
AGAAGGGG	-0.205
CATCCTTA	-0.0316
CCTGCGCG	0.00073
CCGCCTCA	-0.235
ACATTCAC	0.093

Sequence	PBM E-score
CGAAGATA	0.266
ACGTTAAC	0.0708
ATTTGATG	0.0427
CCACCATA	0.0512
ACGCTCTG	-0.193
GTCTCCCA	-0.151
AAACACTC	0.205
AGGATCTC	-0.145
CAACCGAC	0.16
CTGCACAA	-0.064
AGCACACA	-0.064
ATGGGTGC	0.00547
CTTCGTGA	0.0432
AGGAGTCC	-0.266
ATCATCCG	-0.0161
TCGGCACA	-0.116
GACGGCCC	-0.339
ACCCGGCT	-0.173
CCGAGTTA	-0.00537
TCTGCACA	-0.00335
GACTGTTA	-0.0856
CTGTTCCA	-0.0206
AAGCAGGC	-0.264
CCTCCGAG	-0.16
TGCAAGAA	0.0873

2 consecutive records out of the list so far, quoted:
Sequence	PBM E-score
AGGAGTCC	-0.266
ATCATCCG	-0.0161

(next part)

Sequence	PBM E-score
GAATGGAA	0.181
GGATCGGA	0.0109
AAGGGTAA	-0.00876
GATGGTCA	0.00114
ACACGAGG	-0.161
CCGAACGC	0.0758
AAATCAGG	-0.0565
CCAGAGGA	-0.156
CGAAATCG	0.0906
CTTAGATC	-0.0574
CTGAACAA	0.13
CATGGACG	-0.108
CGCGCCGC	0.0181
CTGTGCCA	-0.104
CGCTCCCG	-0.183
ACCAACCC	-0.0705
ACGTCGGA	-0.0968
ACAGCTGA	-0.0382
AGAATTAT	0.122
AACGCGTG	0.0107
CTTAAAAA	0.0411
CTTCCTCC	-0.301
AGGTTCAG	-0.0408
AAGTCACC	-0.081
CTAAGCTA	0.162

Sequence	PBM E-score
ACTGCTCC	-0.0972
AGTCGGGC	-0.0257
GGAGCTGA	-0.167
AAGCAGTG	0.116
CGAAGCCC	-0.18
GGCCACAA	-0.0804
GAAACGGA	0.242
CGCAGGCC	-0.108
CGCAGCGA	-0.0737
CGCGCGTC	0.108
ATTGTCGC	0.0313
ATATGAGG	0.145
CCCCGCAG	-0.0807
CCTCTATA	-0.0655
ACGAAAAA	0.0429
CCGGCACG	-0.178
GGGTCCCA	-0.158
CGGCTAAG	-0.025
AAAGCTAG	-0.103
CTCGAGGC	0.0186
ACTGTATG	-0.0445
CGGCCAGA	-0.061
ACGGCTAG	-0.254
CCTGATGC	-0.0117
AACCCATT	0.114

Sequence	PBM E-score
GGTGACTA	0.0177
AAGAGTCG	0.0162
AGGTGACG	-0.112
CCCGAGAA	0.101
ATTGAACA	-0.00138
ATACCCAG	-0.105
GGGATCCA	-0.0171
CACGTCAC	0.0307
CGTGTAGA	-0.0283
TGCGAGCA	0.067
CAATATAA	0.295
CGTACGGC	-0.128
ATATAACG	0.273
CCCCCGGA	-0.336
ACCCTTAT	0.116
AAAATTCG	0.131
AATCGCGC	0.196
CGCGGTGA	0.0115
GAAGCAAC	0.0134
AACGCGTC	0.00298
CAACAGAG	0.0156
AAAACATC	0.0188
GCGAAATA	0.0667
CTGTGGGC	-0.0963
GGCACCGA	-0.109

Reprinted at random: five entries already listed
Sequence	PBM E-score
GGCACCGA	-0.109
GCGAAATA	0.0667
CCCCCGGA	-0.336
GGGATCCA	-0.0171
AAAATTCG	0.131

Next results follow:

Sequence	PBM E-score
CCATACCC	-0.126
CGGAGACA	-0.0102
AGGAGGGC	-0.315
CTGGGAGC	-0.322
CCATTCCA	0.0151
GATATACC	0.151
AAACTTCC	-0.109
AACGCGTT	0.0467
GTTCCCCA	-0.066
TAGGAACA	-0.143
GATGTGAA	0.18
AAACGAAA	0.191
AAGCTCAG	-0.067
TAAGCTCA	0.135
CCACACGA	-0.0307
CGTTTGAG	-0.0334
GAACTTCC	-0.0174
TGGTATAA	0.167
AGATATCA	0.193
CATAACGC	0.0116
CATAGCGC	0.139
GTAATTGA	0.159
GATTTACC	0.146
CTAGCTAC	-0.176
ATGGCAAT	0.113

Some of the entries so far, with each value named.
CTGGGAGC
  PBM E-score = -0.322
CCATTCCA
  PBM E-score = 0.0151

Further results:

Sequence	PBM E-score
GACCGGGA	-0.139
AATGTCCA	-0.0175
CAAATTCA	-0.0144
AACAAGCT	0.053
GTTTGGGA	0.0363
ACACCACT	0.245
CCACCCGC	-0.0493
GATTCAAA	0.0509
CATCCCAC	-0.0487
GATAGTGC	-0.051
ACTAATGG	0.0831
CAGAGCCG	-0.0563
CGGCGCCA	-0.132
ACGCCCCG	-0.123
CCTGACAC	0.0704
ATACCTAG	0.103
AAGAGGAG	-0.205
AGTGTGTA	0.179
CACCTTTA	-0.0895
GAGTTATC	0.155
CTCATCTA	-0.0299
ACACTCGT	-0.018
AACATTAA	0.114
TACCGGGA	0.0375
AGTACAGA	0.0247

Sequence	PBM E-score
CGAATCAG	0.0186
ACCGCATC	-0.0146
AGATCACC	-0.0322
CGCGATTC	0.124
AGCACTGG	-0.083
GATCCAAA	0.146
CCACTGAG	-0.213
TACTACTA	0.248
AGCTCACC	-0.0382
ACAACCAT	0.306
AGTCCGAG	0.0777
CTGTGGGA	-0.0973
CTAATTTC	0.0506
GCGATAGC	-0.0267
TAGAGAAA	-0.0181
CAAATACA	0.202
GCTTCATA	0.0833
AAGCAAAA	0.111
CACACGGG	-0.117
